# Results are given in words; binding and its absence hold for the method and conditions named. In cells and extracts the contact can be indirect. Some binding calls cover weakened binding; strength is not graded here.
# Chains of the proteins cited; added tags and fusions are not shown.
# UniProt P16520: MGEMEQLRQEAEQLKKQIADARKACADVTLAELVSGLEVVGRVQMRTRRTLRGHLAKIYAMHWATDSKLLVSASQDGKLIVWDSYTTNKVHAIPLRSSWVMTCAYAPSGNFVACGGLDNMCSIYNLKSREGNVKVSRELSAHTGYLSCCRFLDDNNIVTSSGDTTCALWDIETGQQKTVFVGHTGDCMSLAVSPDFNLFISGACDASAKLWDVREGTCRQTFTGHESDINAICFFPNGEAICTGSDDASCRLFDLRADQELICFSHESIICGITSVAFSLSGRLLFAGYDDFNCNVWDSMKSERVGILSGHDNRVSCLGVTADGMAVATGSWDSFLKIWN
# UniProt Q16531: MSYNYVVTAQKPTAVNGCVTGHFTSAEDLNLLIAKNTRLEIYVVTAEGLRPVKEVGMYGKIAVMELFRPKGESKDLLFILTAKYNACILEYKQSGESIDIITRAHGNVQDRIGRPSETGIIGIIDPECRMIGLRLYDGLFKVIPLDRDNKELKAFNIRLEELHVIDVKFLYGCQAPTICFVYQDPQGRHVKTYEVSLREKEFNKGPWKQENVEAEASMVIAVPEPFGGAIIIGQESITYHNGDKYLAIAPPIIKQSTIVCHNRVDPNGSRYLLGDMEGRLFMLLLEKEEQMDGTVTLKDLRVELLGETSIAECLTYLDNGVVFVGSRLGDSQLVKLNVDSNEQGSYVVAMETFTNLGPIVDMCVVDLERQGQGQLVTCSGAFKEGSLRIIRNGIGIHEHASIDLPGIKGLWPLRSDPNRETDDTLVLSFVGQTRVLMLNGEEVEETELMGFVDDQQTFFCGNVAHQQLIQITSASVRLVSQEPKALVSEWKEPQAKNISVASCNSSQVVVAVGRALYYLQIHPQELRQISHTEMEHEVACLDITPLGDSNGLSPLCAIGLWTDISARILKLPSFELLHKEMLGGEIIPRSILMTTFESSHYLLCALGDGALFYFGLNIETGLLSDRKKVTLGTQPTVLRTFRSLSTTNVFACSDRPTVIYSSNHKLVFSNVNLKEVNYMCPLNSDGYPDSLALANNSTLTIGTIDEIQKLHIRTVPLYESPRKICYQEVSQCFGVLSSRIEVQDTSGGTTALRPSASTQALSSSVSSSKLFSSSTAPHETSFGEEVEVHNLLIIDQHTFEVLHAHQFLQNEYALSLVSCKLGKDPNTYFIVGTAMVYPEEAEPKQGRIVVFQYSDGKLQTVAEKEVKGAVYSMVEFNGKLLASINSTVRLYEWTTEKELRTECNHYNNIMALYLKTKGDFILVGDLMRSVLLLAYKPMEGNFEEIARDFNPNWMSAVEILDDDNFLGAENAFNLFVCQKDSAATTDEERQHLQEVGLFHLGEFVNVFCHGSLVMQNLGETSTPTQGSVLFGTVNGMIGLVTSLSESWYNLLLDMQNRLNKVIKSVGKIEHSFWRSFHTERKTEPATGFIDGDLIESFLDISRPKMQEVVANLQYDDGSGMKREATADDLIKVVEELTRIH
# UniProt Q13619: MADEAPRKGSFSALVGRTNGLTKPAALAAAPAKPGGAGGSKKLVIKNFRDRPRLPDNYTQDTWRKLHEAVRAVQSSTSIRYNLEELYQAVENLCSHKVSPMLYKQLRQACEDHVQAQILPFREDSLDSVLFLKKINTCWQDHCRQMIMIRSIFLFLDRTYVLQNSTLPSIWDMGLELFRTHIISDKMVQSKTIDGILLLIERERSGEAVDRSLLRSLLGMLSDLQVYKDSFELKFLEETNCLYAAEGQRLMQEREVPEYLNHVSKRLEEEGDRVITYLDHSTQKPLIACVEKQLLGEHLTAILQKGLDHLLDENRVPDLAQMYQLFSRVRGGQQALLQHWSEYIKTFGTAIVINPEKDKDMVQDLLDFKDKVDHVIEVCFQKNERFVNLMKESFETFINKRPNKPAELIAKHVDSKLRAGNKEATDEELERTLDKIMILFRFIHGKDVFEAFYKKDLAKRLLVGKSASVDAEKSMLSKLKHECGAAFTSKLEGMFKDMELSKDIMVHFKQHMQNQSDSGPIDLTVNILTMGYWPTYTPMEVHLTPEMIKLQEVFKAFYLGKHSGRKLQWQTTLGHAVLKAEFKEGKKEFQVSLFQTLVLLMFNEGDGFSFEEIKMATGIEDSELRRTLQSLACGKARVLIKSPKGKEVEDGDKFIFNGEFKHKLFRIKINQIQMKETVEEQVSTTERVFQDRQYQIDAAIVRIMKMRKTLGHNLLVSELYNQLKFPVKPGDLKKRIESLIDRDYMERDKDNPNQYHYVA
# UniProt P25098: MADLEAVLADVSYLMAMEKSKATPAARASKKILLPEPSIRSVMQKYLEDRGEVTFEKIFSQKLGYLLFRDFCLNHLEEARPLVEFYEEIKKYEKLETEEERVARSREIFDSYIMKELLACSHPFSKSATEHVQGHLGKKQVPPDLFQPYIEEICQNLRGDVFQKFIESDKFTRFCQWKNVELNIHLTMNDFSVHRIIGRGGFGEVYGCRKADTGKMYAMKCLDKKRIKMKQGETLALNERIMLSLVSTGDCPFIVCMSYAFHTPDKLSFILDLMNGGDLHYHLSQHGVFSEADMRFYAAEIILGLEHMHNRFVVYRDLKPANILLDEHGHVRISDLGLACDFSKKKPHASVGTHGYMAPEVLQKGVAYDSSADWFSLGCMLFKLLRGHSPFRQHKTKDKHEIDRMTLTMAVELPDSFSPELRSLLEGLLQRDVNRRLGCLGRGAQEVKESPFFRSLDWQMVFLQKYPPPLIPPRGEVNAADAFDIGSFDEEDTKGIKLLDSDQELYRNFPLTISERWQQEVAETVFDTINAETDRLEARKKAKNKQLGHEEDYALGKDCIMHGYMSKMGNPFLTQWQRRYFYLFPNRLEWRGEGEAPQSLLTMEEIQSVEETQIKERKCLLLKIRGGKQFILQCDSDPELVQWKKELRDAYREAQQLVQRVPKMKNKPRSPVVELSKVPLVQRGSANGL
# Experiments:
# [1] = biological target: Flag-tagged Gβ3 (G-protein beta 3 subunit, wild type) (human) (UniProt P16520); test: co-IP; HEK293 cells co-transfected with MYC-tagged CUL4A and Flag-tagged Gβ3 or Gβ3s (Figure 1e)
# [2] = biological target: Flag-tagged Gβ3 (G-protein beta 3 subunit, wild type) (human) (UniProt P16520); test: co-IP; HEK293 cells transfected with Flag-Gβ3 or Flag-Gβ3s; endogenous CUL4A and DDB1 detected; also after isoproterenol (10 μM) for different lengths of time, which reduced the association (Figures 1d, 1f)
# [3] = biological target: Flag-tagged Gβ3 (G-protein beta 3 subunit, wild type) (human) (UniProt P16520); test: co-IP; HEK293 cells transfected with plasmids for GRK2 and Gβ3 or Gβ3s (Figure 2a)
Substance,binding [1],binding [2],binding [3]
endogenous DDB1 of HEK293 cells (from UniProt Q16531 1-1140),binds,binds,
endogenous CUL4A of HEK293 cells (from UniProt Q13619 1-759),,binds,
MYC-tagged CUL4A (from UniProt Q13619 1-759),binds,,
GRK2 (G-protein-coupled receptor kinase 2) (from UniProt P25098 1-689) (enzyme),,,binds

# Reference: publication PMC4849471
